Values are relative to the signal before dosing, not to a vehicle control; the signal also falls without drug.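 Fibroblast labels name human fibroblasts: mostly primary ones from tissues such as uterus (C12385, HUF), lung (H6013), bone (Hs27A), adrenal (HADF) and skin (WS1), plus mammary HMF and breast cancer-associated Hs343T. The cancer cells are basal-like or mesenchymal-like triple-negative breast cancer lines. The paper calls a changed response a hit when it shifts by more than 3x the replicate standard deviation. The tissue of the other fibroblasts is not given here.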 Numbered stars: 1 amine (or outer) side, 2 acyl side, 3 side chain; on linkers, the order of the positions; unused ones are H or OH. Bridge positions count the residues as written; N and C are the ends. Square brackets hold non-standard residues; d marks the D form. Peptide text beside a SMILES is read from it. I, II: the chains in the order shown. Actinocin(9to1) = Cc1c2oc3c(C)ccc(C(=O)[*:1])c3nc-2c(C(=O)[*:2])c(N)c1=O; NMeV = CN[C@H](C(=O)O)C(C)C; Sar = CNCC(=O)O
Tested on: MDAMB468
Assay: relative JC-1 red fluorescence (viability) vs pre-drug, coculture with fibroblast (fraction); higher = more viable cancer cells
Experimental: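 JC-1 labelled TNBC cells cocultured 1:1 (1,500 cells each) with CellTrace Violet stained primary or stromal fibroblasts in 384-well plates in FluoroBrite medium, treated with one of 42 anticancer drugs at 0.1, 1, 10 or 100 uM. JC-1 red fluorescence (mitochondrial integrity in cancer cells only) was read by plate reader every 8 h for 72 h. Values are normalised to each well's pre-drug value. The stock of one drug was tenfold lower, so its dose labels may be too high.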

Cc1c2oc3c(C)ccc(C(=O)N[C@@H]4C(=O)N[C@H](C(C)C)C(=O)N5CCC[C@H]5C(=O)N(C)CC(=O)N(C)[C@@H](C(C)C)C(=O)O[C@@H]4C)c3nc-2c(C(=O)N[C@@H]2C(=O)N[C@H](C(C)C)C(=O)N3CCC[C@H]3C(=O)N(C)CC(=O)N(C)[C@@H](C(C)C)C(=O)O[C@@H]2C)c(N)c1=O [Dactinomycin] (I: T[dV]P[Sar][NMeV] / II: T[dV]P[Sar][NMeV]; ester I:1-I:C, II:1-II:C; linker I:N-II:N via Actinocin(9to1))
relative JC-1 red fluorescence
Conditions	8 h	16 h	24 h	32 h	40 h	48 h	56 h	64 h	72 h
0.1 µM, coculture fibroblast: C12385	0.877	0.9033	0.927	0.917	0.906	0.888	0.958	0.884	0.899
0.1 µM, coculture fibroblast: H6013	0.8672	0.851	0.815	0.79	0.767	0.777	0.7469	0.7472	0.691
0.1 µM, coculture fibroblast: H6019	0.8649	0.8788	0.8762	0.835	0.8196	0.88982	0.8999	0.9387	0.9812
0.1 µM, coculture fibroblast: H6076	0.908	0.9068	0.8328	0.823	0.755	0.758	0.747	0.732	0.774
0.1 µM, coculture fibroblast: H6231	0.786	0.858	0.768	0.769	0.697	0.651	0.589	0.559	0.5621
0.1 µM, coculture fibroblast: HADF	0.8505	0.8379	0.784	0.77	0.747	0.765	0.738	0.746	0.693
0.1 µM, coculture fibroblast: HCFa	0.852	0.844	0.777	0.759	0.714	0.725	0.686	0.683	0.625
0.1 µM, coculture fibroblast: HCPF	0.85728	0.9416	0.844	0.8278	0.754	0.71	0.638	0.628	0.632
0.1 µM, coculture fibroblast: HHSteC	0.885	0.841	0.804	0.761	0.718	0.722	0.66	0.645	0.582
0.1 µM, coculture fibroblast: HMF	0.8416	0.934	0.847	0.844	0.773	0.74	0.659	0.636	0.62
0.1 µM, coculture fibroblast: HPFa	0.905	0.8652	0.807	0.7526	0.7361	0.759	0.704	0.69	0.618
0.1 µM, coculture fibroblast: HUF	0.867	0.809	0.767	0.714	0.701	0.734	0.7	0.713	0.71
0.1 µM, coculture fibroblast: Hs5	0.9684	0.91	0.869	0.853	0.792	0.778	0.771	0.75	0.784
0.1 µM, coculture fibroblast: Hs27A	0.854	0.893	0.846	0.856	0.839	0.87	0.844	0.835	0.77
0.1 µM, coculture fibroblast: Hs343T	0.882	0.948	0.843	0.817	0.731	0.6814	0.5915	0.57	0.561
0.1 µM, coculture fibroblast: WS1	0.879	0.85	0.835	0.8048	0.777	0.784	0.783	0.788	0.794
1 µM, coculture fibroblast: C12385	0.784	0.741	0.706	0.662	0.631	0.644	0.597	0.587	0.592
1 µM, coculture fibroblast: H6013	0.8245	0.754	0.693	0.637	0.606	0.604	0.567	0.558	0.492
1 µM, coculture fibroblast: H6019	0.772	0.7013	0.661	0.61	0.58	0.585	0.557	0.548	0.558
1 µM, coculture fibroblast: H6076	0.8798	0.833	0.7241	0.7	0.611	0.58	0.54	0.512	0.553
1 µM, coculture fibroblast: H6231	0.79	0.799	0.692	0.683	0.591	0.559	0.517	0.493	0.506
1 µM, coculture fibroblast: HADF	0.842	0.806	0.727	0.693	0.65	0.639	0.577	0.555	0.487
1 µM, coculture fibroblast: HCFa	0.83	0.763	0.697	0.639	0.623	0.633	0.601	0.586	0.537
1 µM, coculture fibroblast: HCPF	0.8268	0.806	0.71	0.715	0.63	0.594	0.559	0.549	0.545
1 µM, coculture fibroblast: HHSteC	0.8387	0.77068	0.726	0.678	0.68	0.688	0.634	0.612	0.552
1 µM, coculture fibroblast: HMF	0.80659	0.807	0.7016	0.67546	0.591	0.576	0.5398	0.5333	0.5394
1 µM, coculture fibroblast: HPFa	0.87	0.784	0.747	0.666	0.638	0.636	0.591	0.586	0.523
1 µM, coculture fibroblast: HUF	0.8172	0.693	0.616	0.542	0.511	0.496	0.456	0.447	0.438
1 µM, coculture fibroblast: Hs5	0.947	0.833	0.745	0.712	0.616	0.582	0.553	0.528	0.571
1 µM, coculture fibroblast: Hs27A	0.8168	0.7837	0.716	0.685	0.663	0.6739	0.648	0.633	0.5742
1 µM, coculture fibroblast: Hs343T	0.842	0.832	0.72	0.673	0.567	0.543	0.507	0.485	0.488
1 µM, coculture fibroblast: WS1	0.8059	0.694	0.608	0.549	0.514	0.512	0.497	0.492	0.5
10 µM, coculture fibroblast: C12385	0.722	0.577	0.515	0.451	0.4091	0.4097	0.383	0.383	0.38
10 µM, coculture fibroblast: H6013	0.8005	0.735	0.6709	0.605	0.576	0.567	0.524	0.512	0.451
10 µM, coculture fibroblast: H6019	0.76	0.716	0.701	0.677	0.66	0.675	0.638	0.627	0.637
10 µM, coculture fibroblast: H6076	0.867	0.805	0.688	0.66	0.556	0.537	0.503	0.483	0.508
10 µM, coculture fibroblast: H6231	0.7715	0.793	0.676	0.655	0.538	0.507	0.463	0.445	0.457
10 µM, coculture fibroblast: HADF	0.797	0.72	0.661	0.644	0.618	0.603	0.564	0.551	0.48
10 µM, coculture fibroblast: HCFa	0.788	0.70077	0.642	0.6	0.569	0.574	0.547	0.532	0.476
10 µM, coculture fibroblast: HCPF	0.832	0.851	0.75	0.74	0.628	0.581	0.522	0.508	0.513
10 µM, coculture fibroblast: HHSteC	0.823	0.757	0.708	0.665	0.657	0.664	0.605	0.585	0.519
10 µM, coculture fibroblast: HMF	0.801	0.817	0.688	0.657	0.553	0.518	0.476	0.457	0.457
10 µM, coculture fibroblast: HPFa	0.79	0.693	0.652	0.588	0.585	0.589	0.55	0.554	0.49
10 µM, coculture fibroblast: HUF	0.772	0.667	0.596	0.521	0.48	0.476	0.436	0.435	0.432
10 µM, coculture fibroblast: Hs5	0.932	0.802	0.705	0.666	0.578	0.54	0.526	0.498	0.53
10 µM, coculture fibroblast: Hs27A	0.751	0.71	0.619	0.58	0.56	0.555	0.516	0.502	0.442
10 µM, coculture fibroblast: Hs343T	0.844	0.839	0.71	0.67	0.556	0.517	0.477	0.464	0.464
10 µM, coculture fibroblast: WS1	0.726	0.57	0.505	0.441	0.396	0.38	0.357	0.348	0.351
100 µM, coculture fibroblast: C12385	0.705	0.692	0.677	0.63	0.592	0.588	0.547	0.5361	0.538
100 µM, coculture fibroblast: H6013	0.74	0.6768	0.62	0.568	0.542	0.535	0.4806	0.462	0.397
100 µM, coculture fibroblast: H6019	0.6833	0.608	0.577	0.519	0.482	0.476	0.438	0.425	0.4
100 µM, coculture fibroblast: H6076	0.828	0.729	0.645	0.627	0.549	0.524	0.49	0.466	0.501
100 µM, coculture fibroblast: H6231	0.715	0.689	0.605	0.635	0.548	0.514	0.467	0.437	0.452
100 µM, coculture fibroblast: HADF	0.74	0.699	0.656	0.63	0.588	0.571	0.531	0.5064	0.446
100 µM, coculture fibroblast: HCFa	0.7155	0.6768	0.638	0.622	0.5776	0.578	0.536	0.511	0.457
100 µM, coculture fibroblast: HCPF	0.761	0.75	0.6739	0.7	0.618	0.593	0.561	0.541	0.541
100 µM, coculture fibroblast: HHSteC	0.7613	0.647	0.59	0.531	0.494	0.493	0.425	0.4	0.345
100 µM, coculture fibroblast: HMF	0.769	0.756	0.682	0.662	0.566	0.547	0.51	0.493	0.493
100 µM, coculture fibroblast: HPFa	0.759	0.693	0.648	0.573	0.576	0.582	0.542	0.535	0.47
100 µM, coculture fibroblast: HUF	0.7792	0.734	0.7	0.6409	0.596	0.585	0.546	0.5447	0.5308
100 µM, coculture fibroblast: Hs5	0.8587	0.72949	0.715	0.7102	0.635	0.616	0.597	0.57	0.61
100 µM, coculture fibroblast: Hs27A	0.7025	0.663	0.596	0.569	0.526	0.522	0.48	0.464	0.402
100 µM, coculture fibroblast: Hs343T	0.779	0.762	0.736	0.751	0.658	0.64	0.6	0.586	0.582
100 µM, coculture fibroblast: WS1	0.7326	0.665	0.614	0.557	0.501	0.48	0.456	0.441	0.437
